No constants are given. Whether binding was seen depends on the method and setting. Some binding calls cover weakened binding; strength is not graded here. Tags and fused reporters may be left off the sequences shown.
Key:
[1] = target: T1, CCK-B/gastrin receptor on AR42J cells (rat pancreatic adenocarcinoma) (rat) (UniProt P30553); experiment: confocal microscopy of AR42J cells
T1 sequence (looked up): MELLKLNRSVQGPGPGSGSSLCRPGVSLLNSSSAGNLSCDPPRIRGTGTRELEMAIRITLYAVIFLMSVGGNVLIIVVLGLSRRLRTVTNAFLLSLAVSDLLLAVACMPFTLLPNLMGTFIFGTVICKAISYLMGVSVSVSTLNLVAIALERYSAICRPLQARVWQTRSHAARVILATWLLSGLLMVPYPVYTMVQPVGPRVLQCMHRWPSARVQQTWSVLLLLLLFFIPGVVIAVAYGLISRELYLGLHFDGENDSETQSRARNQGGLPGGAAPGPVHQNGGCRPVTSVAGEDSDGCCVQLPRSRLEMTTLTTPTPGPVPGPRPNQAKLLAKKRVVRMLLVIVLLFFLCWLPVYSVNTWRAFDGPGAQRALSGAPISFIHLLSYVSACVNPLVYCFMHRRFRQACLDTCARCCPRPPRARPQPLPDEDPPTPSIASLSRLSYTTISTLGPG

Sequences of proteins named here, by UniProt entry; tags and fusion partners are left off. A change or cut given only in a name is not applied to a line headed by its entry.
UniProt P01350: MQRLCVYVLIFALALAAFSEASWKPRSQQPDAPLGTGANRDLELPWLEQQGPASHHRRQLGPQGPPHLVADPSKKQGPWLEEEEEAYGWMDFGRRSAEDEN

[2] = target: T1, CCK-B/gastrin receptor on AR42J cells (rat pancreatic adenocarcinoma) (rat); experiment: confocal fluorescence microscopy of AR42J cells
[3] = target: T2, human CCK-B/gastrin receptor (human) (UniProt P32239); experiment: confocal fluorescence microscopy of HepG2, C170HM2 and transfected NIH3T3 cells
T2 sequence (looked up): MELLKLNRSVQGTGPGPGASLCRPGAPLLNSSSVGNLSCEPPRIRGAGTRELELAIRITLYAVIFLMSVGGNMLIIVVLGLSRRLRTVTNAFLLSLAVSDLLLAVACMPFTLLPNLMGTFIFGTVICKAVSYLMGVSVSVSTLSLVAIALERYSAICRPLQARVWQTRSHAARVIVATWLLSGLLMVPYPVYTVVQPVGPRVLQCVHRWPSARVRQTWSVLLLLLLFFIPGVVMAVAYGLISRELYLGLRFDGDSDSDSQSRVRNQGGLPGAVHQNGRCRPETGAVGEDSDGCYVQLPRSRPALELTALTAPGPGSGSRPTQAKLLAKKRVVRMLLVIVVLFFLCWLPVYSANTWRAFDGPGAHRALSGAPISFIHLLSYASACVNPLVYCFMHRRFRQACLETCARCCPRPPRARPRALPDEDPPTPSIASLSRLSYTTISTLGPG

binding [1]: binds
binding [2]: binds
binding [3]: binds
Binder: AYGWMDF (ligand, UniProt P01350 86-92, looked up, rhodal green label) [rhodal green labeled heptagastrin]
